Source: PMC9925983
Results are given in words; binding and its absence hold for the method and conditions named. Binding seen in cells or lysates may run through a third protein. Some results given as binding are weak or reduced against the parent protein; the word gives no strength.

Chains of the proteins cited; added tags and fusions are not shown.
UniProt Q5EG47: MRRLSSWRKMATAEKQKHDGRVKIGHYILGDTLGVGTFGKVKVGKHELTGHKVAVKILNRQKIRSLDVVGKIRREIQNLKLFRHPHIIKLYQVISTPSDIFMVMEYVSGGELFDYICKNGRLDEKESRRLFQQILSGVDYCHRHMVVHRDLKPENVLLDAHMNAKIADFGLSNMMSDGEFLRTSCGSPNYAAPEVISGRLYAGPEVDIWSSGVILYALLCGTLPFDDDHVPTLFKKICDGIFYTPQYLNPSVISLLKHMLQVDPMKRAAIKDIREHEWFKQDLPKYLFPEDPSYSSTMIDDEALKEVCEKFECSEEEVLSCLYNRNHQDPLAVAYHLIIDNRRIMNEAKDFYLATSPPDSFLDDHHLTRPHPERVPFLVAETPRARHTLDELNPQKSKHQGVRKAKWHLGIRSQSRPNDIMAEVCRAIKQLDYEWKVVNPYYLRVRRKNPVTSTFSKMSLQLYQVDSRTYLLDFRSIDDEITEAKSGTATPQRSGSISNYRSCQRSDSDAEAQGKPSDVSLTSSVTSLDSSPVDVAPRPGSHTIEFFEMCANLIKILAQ

Biological target: AMPK alpha 1 (mouse, endogenous in renal vascular endothelial cells) (mouse (endogenous in renal vascular endothelial cells)) (UniProt Q5EG47)
Experiment: co-IP; Co-IP western blot from renal vascular endothelial cells of WT and Klotho+/- mice; endogenous proteins; precipitating antibody not given

Row | Binder | binding
1 | LATS1 (mouse, endogenous in renal vascular endothelial cells) (enzyme, UniProt Q8BYR2 1-1129) MKRGEKPEGYRQMRPKTFPASNYPGSSRQMLQEIRESLRNLSKPSDASKAEHNLNKMSTEDPRQVRNPPKFGTHHKALQEIRNSLLPFANETSSSRSPSEVNPQMFQDLQAAGFDEDMVIQALQKTNNRSIEAAVEFISKMSYQDPRREQMSAAAARPINATMKPGNVQHSINRKQSWKGSKESLVPQRHGPSLGENVVYRSESPNSQADVGRPLSGSGIAAFAQAHPSNGQRVNPPPPPQVRSVTPPPPPRGQTPPPRGTTPPPPSWEPSSQTKRYSGNMEYVISRISPVPPGAWQEGYPPPPLTTSPMNPPSQAQRAISSVPVGRQPIIMQSTSKFNFTPGRPGVQNGGGQSDFIVHQNVPTGSVTRQPPPPYPLTPANGQSPSALQTGASAAPPSFANGNVPQSMMVPNRNSHNMELYNINVPGLQTAWPQSSSAPAQSSPSGGHEIPTWQPNIPVRSNSFNNPLGSRASHSANSQPSATTVTAITPAPIQQPVKSMRVLKPELQTALAPTHPSWMPQPVQTVQPTPFSEGTASSVPVIPPVAEAPSYQGPPPPYPKHLLHQNPSVPPYESVSKPCKDEQPSLPKEDDSEKSADSGDSGDKEKKQITTSPITVRKNKKDEERRESRIQSYSPQAFKFFMEQHVENVLKSHQQRLHRKKQLENEMMRVGLSQDAQDQMRKMLCQKESNYIRLKRAKMDKSMFVKIKTLGIGAFGEVCLARKVDTKALYATKTLRKKDVLLRNQVAHVKAERDILAEADNEWVVRLYYSFQDKDNLYFVMDYIPGGDMMSLLIRMGIFPENLARFYIAELTCAVESVHKMGFIHRDIKPDNILIDRDGHIKLTDFGLCTGFRWTHDSKYYQSGDHPRQDSMDFSNEWGDPSNCRCGDRLKPLERRAARQHQRCLAHSLVGTPNYIAPEVLLRTGYTQLCDWWSVGVILFEMLVGQPPFLAQTPLETQMKVINWQTSLHIPPQAKLSPEASDLIIKLCRGPEDRLGKNGADEIKAHPFFKTIDFSSDLRQQSASYIPKITHPTDTSNFDPVDPDKLWSDGSEEENISDTLNGWYKNGKHPEHAFYEFTFRRFFDDNGYPYNYPKPIEYEYIHSQGSEQQSDEDDQHTSSDGNNRDLVYV | binds
2 | p-LATS1 (phosphorylated LATS1, mouse, endogenous in renal vascular endothelial cells) (enzyme, UniProt Q8BYR2 1-1129, phosphorylated (p-LATS1); site not given) MKRGEKPEGYRQMRPKTFPASNYPGSSRQMLQEIRESLRNLSKPSDASKAEHNLNKMSTEDPRQVRNPPKFGTHHKALQEIRNSLLPFANETSSSRSPSEVNPQMFQDLQAAGFDEDMVIQALQKTNNRSIEAAVEFISKMSYQDPRREQMSAAAARPINATMKPGNVQHSINRKQSWKGSKESLVPQRHGPSLGENVVYRSESPNSQADVGRPLSGSGIAAFAQAHPSNGQRVNPPPPPQVRSVTPPPPPRGQTPPPRGTTPPPPSWEPSSQTKRYSGNMEYVISRISPVPPGAWQEGYPPPPLTTSPMNPPSQAQRAISSVPVGRQPIIMQSTSKFNFTPGRPGVQNGGGQSDFIVHQNVPTGSVTRQPPPPYPLTPANGQSPSALQTGASAAPPSFANGNVPQSMMVPNRNSHNMELYNINVPGLQTAWPQSSSAPAQSSPSGGHEIPTWQPNIPVRSNSFNNPLGSRASHSANSQPSATTVTAITPAPIQQPVKSMRVLKPELQTALAPTHPSWMPQPVQTVQPTPFSEGTASSVPVIPPVAEAPSYQGPPPPYPKHLLHQNPSVPPYESVSKPCKDEQPSLPKEDDSEKSADSGDSGDKEKKQITTSPITVRKNKKDEERRESRIQSYSPQAFKFFMEQHVENVLKSHQQRLHRKKQLENEMMRVGLSQDAQDQMRKMLCQKESNYIRLKRAKMDKSMFVKIKTLGIGAFGEVCLARKVDTKALYATKTLRKKDVLLRNQVAHVKAERDILAEADNEWVVRLYYSFQDKDNLYFVMDYIPGGDMMSLLIRMGIFPENLARFYIAELTCAVESVHKMGFIHRDIKPDNILIDRDGHIKLTDFGLCTGFRWTHDSKYYQSGDHPRQDSMDFSNEWGDPSNCRCGDRLKPLERRAARQHQRCLAHSLVGTPNYIAPEVLLRTGYTQLCDWWSVGVILFEMLVGQPPFLAQTPLETQMKVINWQTSLHIPPQAKLSPEASDLIIKLCRGPEDRLGKNGADEIKAHPFFKTIDFSSDLRQQSASYIPKITHPTDTSNFDPVDPDKLWSDGSEEENISDTLNGWYKNGKHPEHAFYEFTFRRFFDDNGYPYNYPKPIEYEYIHSQGSEQQSDEDDQHTSSDGNNRDLVYV | binds
